Article PMC2920863
No constants are given. Whether binding was seen depends on the method and setting. In cells and extracts the contact can be indirect.

Chains of the proteins cited; added tags and fusions are not shown.
UniProt Q3ZBT1: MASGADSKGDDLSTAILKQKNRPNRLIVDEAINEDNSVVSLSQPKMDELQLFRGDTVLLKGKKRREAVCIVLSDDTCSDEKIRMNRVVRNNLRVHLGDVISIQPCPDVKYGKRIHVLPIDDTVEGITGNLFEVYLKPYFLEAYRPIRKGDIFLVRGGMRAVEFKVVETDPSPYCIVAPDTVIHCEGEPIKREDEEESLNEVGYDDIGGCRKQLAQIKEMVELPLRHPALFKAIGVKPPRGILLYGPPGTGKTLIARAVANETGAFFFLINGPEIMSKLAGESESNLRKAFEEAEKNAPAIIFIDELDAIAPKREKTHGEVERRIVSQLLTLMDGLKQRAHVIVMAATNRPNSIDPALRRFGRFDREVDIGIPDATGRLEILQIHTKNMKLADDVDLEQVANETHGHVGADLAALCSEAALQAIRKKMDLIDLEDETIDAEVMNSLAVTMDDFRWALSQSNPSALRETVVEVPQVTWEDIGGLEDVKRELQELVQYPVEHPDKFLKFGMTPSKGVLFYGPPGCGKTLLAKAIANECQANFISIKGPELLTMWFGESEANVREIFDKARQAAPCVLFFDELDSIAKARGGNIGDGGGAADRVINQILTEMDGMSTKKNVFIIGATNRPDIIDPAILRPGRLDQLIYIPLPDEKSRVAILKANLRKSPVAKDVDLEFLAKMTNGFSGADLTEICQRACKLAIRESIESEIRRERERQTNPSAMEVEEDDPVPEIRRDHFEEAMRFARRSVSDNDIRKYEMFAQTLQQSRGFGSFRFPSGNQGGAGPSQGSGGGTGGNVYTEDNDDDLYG

Biological target: T1, DERL1 (bovine (endogenous in corpus luteum)) (UniProt Q71SS4)
T1 sequence: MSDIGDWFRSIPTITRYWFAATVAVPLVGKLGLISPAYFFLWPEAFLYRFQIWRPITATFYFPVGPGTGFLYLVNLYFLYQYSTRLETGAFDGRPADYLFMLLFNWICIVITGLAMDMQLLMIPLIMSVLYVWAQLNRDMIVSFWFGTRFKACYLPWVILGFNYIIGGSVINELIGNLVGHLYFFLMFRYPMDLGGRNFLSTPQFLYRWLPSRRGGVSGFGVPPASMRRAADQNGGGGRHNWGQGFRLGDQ
Experiment: co-IP; bovine luteal tissue lysate (100 ug; days 5, 11, 18 of the estrous cycle), precleared, immunoprecipitated with anti-DERL1 antibody and protein A Sepharose CL-4B at 4°C, washed 3 times in lysis buffer with 1% Nonidet-P40; precipitates and supernatants blotted for class I MHC, VIMP and p97

binding: no binding
Substance: ATPase p97/Valosin-containing protein (VCP) (from UniProt Q3ZBT1 1-806)
